Experimental data reported in PMC10681733.
No constants are given. Whether binding was seen depends on the method and setting. In cells and extracts the contact can be indirect. Here binding means that the protein was enriched with, or labelled near, the bait; the list need not be complete. For part of these data: Tags and fused reporters may be left off the sequences shown.

By UniProt entry, the sequences of proteins in these tests, tags left out.
UniProt Q14186: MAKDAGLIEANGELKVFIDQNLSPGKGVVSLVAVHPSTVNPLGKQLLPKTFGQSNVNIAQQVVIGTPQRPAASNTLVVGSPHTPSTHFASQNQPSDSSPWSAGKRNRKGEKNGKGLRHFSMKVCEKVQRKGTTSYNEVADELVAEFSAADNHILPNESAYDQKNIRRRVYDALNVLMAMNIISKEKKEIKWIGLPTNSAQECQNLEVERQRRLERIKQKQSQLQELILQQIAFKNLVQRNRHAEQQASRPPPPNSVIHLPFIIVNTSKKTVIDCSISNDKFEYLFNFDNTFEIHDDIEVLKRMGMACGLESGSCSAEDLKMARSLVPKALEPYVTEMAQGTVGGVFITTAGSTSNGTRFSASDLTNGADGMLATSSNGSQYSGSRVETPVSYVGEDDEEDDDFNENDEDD
UniProt P61244: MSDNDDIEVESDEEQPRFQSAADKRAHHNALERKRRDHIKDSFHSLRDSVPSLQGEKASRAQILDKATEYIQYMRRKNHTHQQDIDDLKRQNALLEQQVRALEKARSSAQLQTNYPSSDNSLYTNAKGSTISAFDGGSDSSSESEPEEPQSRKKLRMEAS
UniProt Q03112: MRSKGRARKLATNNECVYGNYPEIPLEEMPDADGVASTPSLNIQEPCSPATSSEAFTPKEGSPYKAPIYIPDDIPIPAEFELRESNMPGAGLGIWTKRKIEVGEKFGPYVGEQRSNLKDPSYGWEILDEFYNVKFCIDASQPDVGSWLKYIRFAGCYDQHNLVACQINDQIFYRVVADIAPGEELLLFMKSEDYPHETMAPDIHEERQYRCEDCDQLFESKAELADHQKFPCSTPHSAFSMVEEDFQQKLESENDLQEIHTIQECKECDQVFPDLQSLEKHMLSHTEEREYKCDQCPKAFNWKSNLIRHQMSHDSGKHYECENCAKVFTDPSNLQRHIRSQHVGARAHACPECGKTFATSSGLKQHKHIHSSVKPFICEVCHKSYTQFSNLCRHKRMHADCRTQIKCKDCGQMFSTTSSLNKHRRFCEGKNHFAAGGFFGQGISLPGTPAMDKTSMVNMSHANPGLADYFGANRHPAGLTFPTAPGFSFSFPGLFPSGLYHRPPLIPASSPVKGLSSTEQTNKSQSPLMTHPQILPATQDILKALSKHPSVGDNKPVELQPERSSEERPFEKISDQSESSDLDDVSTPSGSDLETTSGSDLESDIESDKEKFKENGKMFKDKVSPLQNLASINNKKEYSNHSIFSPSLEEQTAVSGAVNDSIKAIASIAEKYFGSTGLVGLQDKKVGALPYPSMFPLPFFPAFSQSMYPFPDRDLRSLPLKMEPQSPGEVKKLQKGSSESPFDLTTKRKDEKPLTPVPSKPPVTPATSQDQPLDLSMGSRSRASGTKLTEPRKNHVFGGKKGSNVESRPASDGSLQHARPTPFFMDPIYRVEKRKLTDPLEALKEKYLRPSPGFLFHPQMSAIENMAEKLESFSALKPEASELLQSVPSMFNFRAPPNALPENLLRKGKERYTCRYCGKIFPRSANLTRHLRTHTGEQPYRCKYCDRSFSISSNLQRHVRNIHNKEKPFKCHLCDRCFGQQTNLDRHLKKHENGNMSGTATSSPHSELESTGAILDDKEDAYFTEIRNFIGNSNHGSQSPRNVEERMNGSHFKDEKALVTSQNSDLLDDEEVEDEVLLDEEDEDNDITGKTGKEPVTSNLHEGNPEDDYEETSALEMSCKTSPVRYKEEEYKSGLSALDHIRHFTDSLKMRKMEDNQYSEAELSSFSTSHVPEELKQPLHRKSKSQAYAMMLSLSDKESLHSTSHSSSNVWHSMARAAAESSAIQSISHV
UniProt O95816: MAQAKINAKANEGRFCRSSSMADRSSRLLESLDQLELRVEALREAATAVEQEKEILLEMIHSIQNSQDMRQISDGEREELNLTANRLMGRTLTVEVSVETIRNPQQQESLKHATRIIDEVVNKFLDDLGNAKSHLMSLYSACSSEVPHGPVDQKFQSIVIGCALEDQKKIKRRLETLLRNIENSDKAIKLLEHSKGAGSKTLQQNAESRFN
UniProt Q9UKL0: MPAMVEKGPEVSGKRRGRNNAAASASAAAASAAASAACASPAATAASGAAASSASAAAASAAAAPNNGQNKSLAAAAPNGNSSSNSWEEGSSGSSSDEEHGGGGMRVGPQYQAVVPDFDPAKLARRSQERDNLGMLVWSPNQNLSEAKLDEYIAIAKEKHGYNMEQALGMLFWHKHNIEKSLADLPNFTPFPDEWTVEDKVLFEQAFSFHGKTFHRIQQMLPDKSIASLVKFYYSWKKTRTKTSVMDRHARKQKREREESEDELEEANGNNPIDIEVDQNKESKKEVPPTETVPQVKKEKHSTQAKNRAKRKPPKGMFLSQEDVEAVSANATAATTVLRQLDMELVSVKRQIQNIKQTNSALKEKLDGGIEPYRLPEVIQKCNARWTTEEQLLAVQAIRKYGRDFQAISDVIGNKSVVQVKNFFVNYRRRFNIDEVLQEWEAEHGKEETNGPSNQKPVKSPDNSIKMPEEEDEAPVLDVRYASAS
UniProt Q8IZ40: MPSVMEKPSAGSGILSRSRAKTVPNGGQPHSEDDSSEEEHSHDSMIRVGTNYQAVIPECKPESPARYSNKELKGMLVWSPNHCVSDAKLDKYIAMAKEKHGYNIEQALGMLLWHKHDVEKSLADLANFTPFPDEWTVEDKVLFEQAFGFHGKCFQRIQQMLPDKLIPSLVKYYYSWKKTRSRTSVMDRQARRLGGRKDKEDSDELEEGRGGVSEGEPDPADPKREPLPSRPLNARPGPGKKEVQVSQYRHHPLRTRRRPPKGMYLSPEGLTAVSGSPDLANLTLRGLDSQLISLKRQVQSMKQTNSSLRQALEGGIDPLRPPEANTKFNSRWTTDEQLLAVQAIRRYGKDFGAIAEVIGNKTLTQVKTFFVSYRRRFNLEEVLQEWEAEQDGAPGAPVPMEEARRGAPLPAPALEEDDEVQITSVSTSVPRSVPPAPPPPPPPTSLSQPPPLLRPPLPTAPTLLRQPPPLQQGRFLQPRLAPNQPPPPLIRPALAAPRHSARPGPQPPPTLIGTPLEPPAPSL
UniProt Q9NP66: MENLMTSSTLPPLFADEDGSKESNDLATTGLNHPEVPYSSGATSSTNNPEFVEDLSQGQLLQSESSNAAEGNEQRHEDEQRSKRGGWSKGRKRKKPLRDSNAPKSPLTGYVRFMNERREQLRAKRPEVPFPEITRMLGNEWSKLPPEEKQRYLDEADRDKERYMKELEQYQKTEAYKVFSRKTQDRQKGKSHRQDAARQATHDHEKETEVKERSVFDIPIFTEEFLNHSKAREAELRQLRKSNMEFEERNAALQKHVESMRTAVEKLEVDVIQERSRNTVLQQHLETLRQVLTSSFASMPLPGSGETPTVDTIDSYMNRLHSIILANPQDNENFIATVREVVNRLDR
UniProt P25787: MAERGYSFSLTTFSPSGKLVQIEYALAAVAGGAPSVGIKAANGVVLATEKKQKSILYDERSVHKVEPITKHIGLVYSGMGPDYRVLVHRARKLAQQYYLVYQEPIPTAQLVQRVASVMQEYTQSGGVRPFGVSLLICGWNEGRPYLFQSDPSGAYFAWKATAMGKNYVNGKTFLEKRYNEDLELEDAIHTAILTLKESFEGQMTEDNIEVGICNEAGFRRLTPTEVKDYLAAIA
UniProt Q92769: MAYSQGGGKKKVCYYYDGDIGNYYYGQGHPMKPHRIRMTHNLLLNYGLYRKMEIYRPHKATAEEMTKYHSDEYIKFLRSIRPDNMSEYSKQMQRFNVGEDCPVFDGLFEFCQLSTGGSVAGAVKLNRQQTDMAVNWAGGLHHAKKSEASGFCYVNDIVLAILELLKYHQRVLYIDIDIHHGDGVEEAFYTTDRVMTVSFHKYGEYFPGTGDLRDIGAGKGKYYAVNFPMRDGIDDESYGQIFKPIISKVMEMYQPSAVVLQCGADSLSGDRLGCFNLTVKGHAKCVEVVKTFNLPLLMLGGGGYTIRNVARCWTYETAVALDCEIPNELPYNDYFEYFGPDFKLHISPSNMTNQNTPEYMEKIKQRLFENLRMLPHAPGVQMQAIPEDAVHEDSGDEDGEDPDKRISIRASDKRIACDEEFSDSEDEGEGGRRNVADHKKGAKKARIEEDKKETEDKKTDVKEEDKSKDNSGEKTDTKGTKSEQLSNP

What follows are substances tested against C-terminally FLAG-tagged wildtype HDAC1 (UniProt Q13547) (assay: affinity purification with mass spectrometry; HDAC1-FLAG captured on crosslinked M2-FLAG beads from HAP1 whole cell extract (Hunt buffer: 20 mM Tris/HCl pH 8.0, 100 mM NaCl, 1 mM EDTA, 0.5% NP-40), overnight 4°C; control HDAC1 KO cells; on-bead digest, label-free quantification).
With TFDP1 (from UniProt Q14186 1-410) the binding was “binds”. For MAX (from UniProt P61244 1-160), the binding was “binds”. In the case of MECOM (from UniProt Q03112 1-1230), the binding is reported as “binds”. With BAG2 (from UniProt O95816 1-211) the binding was “binds”. For SQSTM1 (from UniProt Q13501 1-440), the binding was “binds”.

The substances below were run against T1, V5-tagged version of the endogenous GSE1 protein (human) (UniProt Q14687) (assay: affinity purification with mass spectrometry; GSE1-V5 captured on V5-beads from HAP1 whole cell extract (Hunt buffer), untreated and 6 h etoposide treated cells; control HAP1 WT cells; on-bead digest, label-free quantification).
T1 sequence: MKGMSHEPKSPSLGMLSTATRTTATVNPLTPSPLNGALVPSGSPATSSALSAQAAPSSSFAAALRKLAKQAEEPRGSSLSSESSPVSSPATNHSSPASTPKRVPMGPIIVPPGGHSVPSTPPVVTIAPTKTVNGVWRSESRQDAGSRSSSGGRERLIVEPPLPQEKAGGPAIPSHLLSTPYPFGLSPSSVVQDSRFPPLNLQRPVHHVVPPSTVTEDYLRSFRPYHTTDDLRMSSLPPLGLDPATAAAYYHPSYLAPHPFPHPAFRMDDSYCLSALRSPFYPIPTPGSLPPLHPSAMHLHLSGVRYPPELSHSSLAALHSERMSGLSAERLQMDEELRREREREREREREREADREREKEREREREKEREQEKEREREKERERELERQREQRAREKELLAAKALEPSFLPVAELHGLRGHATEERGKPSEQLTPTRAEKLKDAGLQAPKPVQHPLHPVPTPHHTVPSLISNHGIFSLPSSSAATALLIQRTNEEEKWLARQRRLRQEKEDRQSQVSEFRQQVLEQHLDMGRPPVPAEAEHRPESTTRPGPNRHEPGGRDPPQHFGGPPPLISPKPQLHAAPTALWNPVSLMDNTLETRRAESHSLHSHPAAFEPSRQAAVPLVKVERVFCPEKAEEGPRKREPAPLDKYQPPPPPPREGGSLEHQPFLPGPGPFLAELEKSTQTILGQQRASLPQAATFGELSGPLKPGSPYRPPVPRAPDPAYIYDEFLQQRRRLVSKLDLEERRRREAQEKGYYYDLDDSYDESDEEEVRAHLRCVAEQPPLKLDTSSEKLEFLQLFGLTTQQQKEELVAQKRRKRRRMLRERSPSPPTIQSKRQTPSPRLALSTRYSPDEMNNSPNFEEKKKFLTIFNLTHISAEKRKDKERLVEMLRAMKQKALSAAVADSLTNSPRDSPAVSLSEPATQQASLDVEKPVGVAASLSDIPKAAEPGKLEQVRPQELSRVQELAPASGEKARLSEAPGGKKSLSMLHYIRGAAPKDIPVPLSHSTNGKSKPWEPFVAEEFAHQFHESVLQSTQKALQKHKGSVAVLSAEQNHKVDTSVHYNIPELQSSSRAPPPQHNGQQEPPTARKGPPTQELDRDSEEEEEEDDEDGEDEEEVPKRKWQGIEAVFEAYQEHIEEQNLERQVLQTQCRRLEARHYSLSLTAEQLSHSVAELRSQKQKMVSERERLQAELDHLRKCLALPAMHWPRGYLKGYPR
With “HDAC1 (endogenous, human) (from UniProt Q13547 1-482)” the binding was “binds”. With CoREST (from UniProt Q9UKL0 1-485) the binding was “binds”. For RCOR2 (from UniProt Q8IZ40 1-523), the binding was “binds”. HMB20A (from UniProt Q9NP66 1-347) was tested, and the binding was “binds”. For PSMA2 (from UniProt P25787 1-234), the binding was “binds”. For RCOR3 (from UniProt Q9P2K3 1-495), the binding was “binds”. In the case of “HDAC2 (endogenous, human) (from UniProt Q92769 1-488)”, the binding is reported as “binds”.
